Reference: publication PMC6180044
No constants are given. Whether binding was seen depends on the method and setting. In cells and extracts the contact can be indirect. Some results given as binding are weak or reduced against the parent protein; the word gives no strength.

Protein sequences, listed by entry. Tags and fused reporters are not part of them.
UniProt Q02248: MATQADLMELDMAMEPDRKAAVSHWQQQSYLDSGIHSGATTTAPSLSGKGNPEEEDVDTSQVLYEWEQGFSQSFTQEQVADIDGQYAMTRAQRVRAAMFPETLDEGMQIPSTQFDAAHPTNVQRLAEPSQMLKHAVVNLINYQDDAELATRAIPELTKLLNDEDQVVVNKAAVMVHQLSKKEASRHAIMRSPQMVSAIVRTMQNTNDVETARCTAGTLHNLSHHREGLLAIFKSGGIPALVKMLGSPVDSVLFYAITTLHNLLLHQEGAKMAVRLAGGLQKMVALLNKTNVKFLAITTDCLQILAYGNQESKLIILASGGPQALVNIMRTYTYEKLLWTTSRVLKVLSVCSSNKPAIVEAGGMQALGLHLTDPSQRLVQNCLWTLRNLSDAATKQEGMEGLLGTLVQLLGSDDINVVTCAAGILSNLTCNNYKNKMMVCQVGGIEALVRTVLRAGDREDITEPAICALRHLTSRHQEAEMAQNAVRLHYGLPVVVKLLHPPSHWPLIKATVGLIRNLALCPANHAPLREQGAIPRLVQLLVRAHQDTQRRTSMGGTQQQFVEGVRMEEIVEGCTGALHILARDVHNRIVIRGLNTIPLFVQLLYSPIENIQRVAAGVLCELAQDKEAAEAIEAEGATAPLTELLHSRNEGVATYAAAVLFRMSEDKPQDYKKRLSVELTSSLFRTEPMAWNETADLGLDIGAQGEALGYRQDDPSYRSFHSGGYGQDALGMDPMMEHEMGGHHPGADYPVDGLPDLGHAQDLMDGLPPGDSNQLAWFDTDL
UniProt P45481: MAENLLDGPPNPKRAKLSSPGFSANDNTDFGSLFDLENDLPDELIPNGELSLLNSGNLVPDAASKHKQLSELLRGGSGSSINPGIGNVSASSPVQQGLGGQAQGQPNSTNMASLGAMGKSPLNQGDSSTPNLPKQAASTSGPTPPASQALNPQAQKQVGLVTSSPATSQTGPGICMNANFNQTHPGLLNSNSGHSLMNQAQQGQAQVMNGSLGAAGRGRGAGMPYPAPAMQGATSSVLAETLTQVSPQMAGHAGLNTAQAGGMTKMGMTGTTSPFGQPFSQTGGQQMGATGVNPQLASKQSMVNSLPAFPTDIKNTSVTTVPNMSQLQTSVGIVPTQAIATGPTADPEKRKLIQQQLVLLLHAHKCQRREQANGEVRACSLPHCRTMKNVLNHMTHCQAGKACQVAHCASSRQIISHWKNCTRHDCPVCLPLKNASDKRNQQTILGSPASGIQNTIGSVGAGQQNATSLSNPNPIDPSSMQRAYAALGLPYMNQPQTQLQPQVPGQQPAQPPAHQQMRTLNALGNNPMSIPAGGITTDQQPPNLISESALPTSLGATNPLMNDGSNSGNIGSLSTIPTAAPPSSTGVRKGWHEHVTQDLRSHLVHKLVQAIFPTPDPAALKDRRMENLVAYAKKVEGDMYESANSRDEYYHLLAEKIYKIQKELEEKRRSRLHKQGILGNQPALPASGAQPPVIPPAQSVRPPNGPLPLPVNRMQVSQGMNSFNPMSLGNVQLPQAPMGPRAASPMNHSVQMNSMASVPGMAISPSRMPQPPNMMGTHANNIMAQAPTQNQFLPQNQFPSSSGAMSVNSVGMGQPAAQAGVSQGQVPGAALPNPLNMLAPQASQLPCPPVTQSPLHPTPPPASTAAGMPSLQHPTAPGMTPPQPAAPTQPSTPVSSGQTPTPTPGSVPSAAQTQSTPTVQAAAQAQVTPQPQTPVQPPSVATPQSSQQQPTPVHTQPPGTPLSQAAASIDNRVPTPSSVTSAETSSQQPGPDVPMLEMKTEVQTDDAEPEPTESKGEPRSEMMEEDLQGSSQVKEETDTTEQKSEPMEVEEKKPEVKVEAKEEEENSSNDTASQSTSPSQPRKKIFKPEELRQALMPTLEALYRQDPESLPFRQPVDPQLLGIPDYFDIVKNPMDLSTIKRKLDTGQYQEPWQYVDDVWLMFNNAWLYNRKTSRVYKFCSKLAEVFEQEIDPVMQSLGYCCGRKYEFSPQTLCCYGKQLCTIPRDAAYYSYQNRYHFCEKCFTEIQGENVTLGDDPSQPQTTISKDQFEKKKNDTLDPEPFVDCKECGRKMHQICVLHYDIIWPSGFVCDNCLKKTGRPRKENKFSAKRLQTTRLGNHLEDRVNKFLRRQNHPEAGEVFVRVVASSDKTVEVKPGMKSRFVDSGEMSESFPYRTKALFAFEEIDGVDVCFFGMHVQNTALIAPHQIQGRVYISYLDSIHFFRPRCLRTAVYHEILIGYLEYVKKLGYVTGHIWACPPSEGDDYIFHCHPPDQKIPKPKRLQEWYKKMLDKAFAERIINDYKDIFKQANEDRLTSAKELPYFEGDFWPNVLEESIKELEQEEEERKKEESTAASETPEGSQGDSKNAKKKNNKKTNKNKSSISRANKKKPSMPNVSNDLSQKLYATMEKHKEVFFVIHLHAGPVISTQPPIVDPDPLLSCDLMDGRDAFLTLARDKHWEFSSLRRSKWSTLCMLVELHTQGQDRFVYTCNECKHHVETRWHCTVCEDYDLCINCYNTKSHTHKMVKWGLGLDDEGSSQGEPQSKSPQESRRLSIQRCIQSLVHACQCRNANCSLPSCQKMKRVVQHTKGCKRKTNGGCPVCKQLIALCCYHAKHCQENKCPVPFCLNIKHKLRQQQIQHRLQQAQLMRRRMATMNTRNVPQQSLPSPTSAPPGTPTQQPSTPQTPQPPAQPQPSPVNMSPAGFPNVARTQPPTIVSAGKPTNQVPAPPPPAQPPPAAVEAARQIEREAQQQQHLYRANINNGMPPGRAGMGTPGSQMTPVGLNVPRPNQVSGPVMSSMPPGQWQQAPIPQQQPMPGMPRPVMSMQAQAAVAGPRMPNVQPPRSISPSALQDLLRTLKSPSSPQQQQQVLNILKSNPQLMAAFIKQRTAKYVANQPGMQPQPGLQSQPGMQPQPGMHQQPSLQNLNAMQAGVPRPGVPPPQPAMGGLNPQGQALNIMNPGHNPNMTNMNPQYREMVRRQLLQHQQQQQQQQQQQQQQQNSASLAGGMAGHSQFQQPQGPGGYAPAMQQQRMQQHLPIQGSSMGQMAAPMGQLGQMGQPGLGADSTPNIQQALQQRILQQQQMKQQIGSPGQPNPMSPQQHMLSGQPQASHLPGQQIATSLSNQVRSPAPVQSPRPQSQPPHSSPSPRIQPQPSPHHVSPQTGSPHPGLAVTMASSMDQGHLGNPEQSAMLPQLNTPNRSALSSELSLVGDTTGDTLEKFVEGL

Molecular target: β-catenin (mouse (endogenous in C2C12)) (UniProt Q02248)
Experiment: co-IP; nuclear extracts (Nuclear Extraction Kit) of proliferating or differentiated C2C12 cells; IP with mouse monoclonal antibodies against β-catenin, KAT2B or CBP; immunoblot with rabbit polyclonal antibodies against active β-catenin, KAT2B and CBP; IgG control

binding: binds
Substance: cAMP-response element-binding protein (CREB)-binding protein (CBP) (from UniProt P45481 1-2441)
